Reference: patent US8227245B2, “Multipotent stem cells from peripheral tissues and uses thereof” (McGill University, priority 2000, dated 2012)
For at least one compound, name, drawing or mass did not settle the structure.

Key:
skin-derived MSCs = test: Pharmacological agents added to proliferating skin-derived MSCs (morphology, survival); format: cell-based, mouse; conditions: plated three days in proliferation medium containing FGF, medium supplemented with agent
Text: FIG. 10 is a series of photographs showing the effect of various pharmacological agents on mouse skin-derived MSCs.
We tested the ability of pharmacological agents to alter this phenotype.

skin derived MSCs = test: Neuronal differentiation of skin-derived MSCs plated in 5% serum with added agent, anti-neurofilament immunocytochemistry; format: cell-based; conditions: 5% serum plus agent, compared with serum alone
Procedure: Cells were dissociated and plated in the presence of either 5% FBS, 5% FBS+retinoic acid (RA), or 5% FBS+BMP7. Cells were analyzed immunocytochemically for expression of neurofilament M (NFM).
Skin derived MSCs were obtained and cultured as described in detail above. To induce differentiation, cells were plated in the presence of 5% serum supplemented with either retinoic acid or BMP-7. Neuronal differentiation was analyzed using a polyclonal anti-neurofilament antibody.

Compound | effect on phenotype of proliferating skin-derived MSCs (skin-derived MSCs) | number and complexity of neurofilament positive cells (skin derived MSCs)
O=c1cc(N2CCOCC2)oc2c(-c3ccccc3)cccc12 [LY294002] | caused the cells to die | –
CC1=C(/C=C/C(C)=C/C=C/C(C)=C/C(=O)O)C(C)(C)CCC1 [retinoic acid] | – | enhances the number and complexity of neurofilament positive cells
